Results reported in patent US7999069B2, “EphB receptor-binding peptides” (Sanford-Burnham Medical Research Institute, priority 2005, dated 2011).
Not every detail of the peptide structures is certain; ends, links or a residue may be inferred.

Legend:
EphB4 [1] = assay: Quantum dot labeling of EphB4-expressing cells via TNYL peptide; assay type: cell-based; settings: 4% formaldehyde
EphB4 [2] = molecular target: T1, EphB4 (Homo sapiens, UniProt P54760); assay: Ephrin-B2 Fc-induced EphB4 tyrosine phosphorylation in breast cancer cells; assay type: cell-based; settings: concentrations up to 350 μM; MCF7 and MDA-MB-231 cells
T1 construct: MCF-7 human breast cancer cells, which endogenously express EphB4; endogenous in cells; host or cells: MCF7
T1 sequence (P54760 16-987): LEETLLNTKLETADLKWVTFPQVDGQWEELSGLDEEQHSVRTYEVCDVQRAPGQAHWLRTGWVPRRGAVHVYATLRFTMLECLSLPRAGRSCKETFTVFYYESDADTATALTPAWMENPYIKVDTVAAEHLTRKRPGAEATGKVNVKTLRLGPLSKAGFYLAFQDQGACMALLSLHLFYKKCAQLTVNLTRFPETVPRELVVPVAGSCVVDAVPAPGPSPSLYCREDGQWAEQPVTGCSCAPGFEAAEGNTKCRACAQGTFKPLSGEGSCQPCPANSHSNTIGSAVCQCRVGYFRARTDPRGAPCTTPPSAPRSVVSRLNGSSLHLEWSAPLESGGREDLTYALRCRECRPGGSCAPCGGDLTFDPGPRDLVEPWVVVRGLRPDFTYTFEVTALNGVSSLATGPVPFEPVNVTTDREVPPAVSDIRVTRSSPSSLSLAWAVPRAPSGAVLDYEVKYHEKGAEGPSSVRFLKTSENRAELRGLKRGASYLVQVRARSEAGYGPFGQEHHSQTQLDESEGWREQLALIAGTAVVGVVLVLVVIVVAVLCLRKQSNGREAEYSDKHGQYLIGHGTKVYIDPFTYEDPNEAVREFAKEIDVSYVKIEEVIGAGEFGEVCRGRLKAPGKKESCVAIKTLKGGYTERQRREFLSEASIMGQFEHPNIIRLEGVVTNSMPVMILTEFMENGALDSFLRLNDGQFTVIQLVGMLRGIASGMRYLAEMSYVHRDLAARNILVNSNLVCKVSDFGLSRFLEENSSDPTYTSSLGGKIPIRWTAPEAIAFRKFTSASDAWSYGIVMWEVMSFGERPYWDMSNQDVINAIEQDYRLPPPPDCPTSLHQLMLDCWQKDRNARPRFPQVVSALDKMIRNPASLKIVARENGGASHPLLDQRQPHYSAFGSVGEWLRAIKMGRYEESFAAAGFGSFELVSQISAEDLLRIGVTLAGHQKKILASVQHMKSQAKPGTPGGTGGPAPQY
Method: Preincubation of COS cells with the SNEW peptide in a concentration-dependent manner blocked the ability of ephrin-B1 Fc to induce tyrosine phosphorylation, and therefore activation, of endogenous EphB2 (FIG. 4A). EphB2 was immunoprecipitated from COS cells after stimulation with ephrin-B1 Fc, or Fc as a control, in the presence of the indicated concentrations of SNEW peptide and control RTVA peptide. For EphB2 immunoprecipitations, COS cells were serum-starved in DME high glucose for 3 hrs prior to stimulation with 1 μg/ml ephrin-B1 Fc or Fc protein in the presence or absence of EphB2-binding peptides or a control peptide. […] After ephrin stimulation, the cells were lysed in modified RIPA buffer (150 mM NaCl, 1 mM EDTA, 1% Triton X-100, 1% Na deoxycholate, 0.1% SDS, 20 mM Tris pH 8.0) with protease inhibitors and 1 mM sodium orthovanadate. Cell lysates were used for immunoprecipitation with either 5 μg EphB2 antibodies or 10 μg EphB4 antibodies. […]
The GP motif aligns with the GP motif of TNYL and the RAW motif aligns precisely next to the last amino acid of TNYL. […] After several washes, the amount of ephrin-B2-AP bound was quantified using p-nitrophenylphosphate as a substrate. […]

SMILES: CC[C@H](C)[C@H](NC(=O)[C@@H]1CCCN1C(=O)CNC(=O)[C@H](CC(N)=O)NC(=O)[C@@H]1CCCN1C(=O)[C@H](CO)NC(=O)[C@H](Cc1ccccc1)NC(=O)[C@H](CC(C)C)NC(=O)[C@H](Cc1ccc(O)cc1)NC(=O)[C@H](CC(N)=O)NC(=O)[C@@H](N)[C@@H](C)O)C(=O)N[C@@H](C)C(=O)O [SEQ ID NO 24]
- Binding to EphB4 after fixation of cells (EphB4 [1]): capable of also binding to EphB4 even after fixation
- Inhibition of endogenous EphB4 tyrosine phosphorylation (EphB4 [2]): did not inhibit endogenous EphB4 tyrosine phosphorylation
